# Counter-ions that a name gives are not always drawn.
row,melting point [°C],Structure (SMILES)
1,159 to 162,CN(CCc1ccc(Nc2ncc3c(n2)-c2ccccc2[C@H](c2ccc(Cl)cc2)C3)cc1)C1CCCCC1 (as salt: hydrochloride)
2,157 to 163,CN(CCc1ccc(Nc2ncc3c(n2)-c2ccccc2C(c2ccc(Cl)cc2)C3)cc1)C1CCCCC1 (centres unmarked) (as salt: hydrochloride)
